# Laboratory results published in PubChem BioAssay AID504467 (National Center for Advancing Translational Sciences (NCATS), 2011).
# Among all 330,000 compounds or so, about 7,700 (2.3%) were called active. This list was built around the results that the source calls inconclusive (neither active nor inactive); the mix of calls is not that of the screen. The call rests on the fitted dose curve; in most records, active means well fitted inhibition curve with a large enough effect; inconclusive means small, poorly fitted or top-dose-only effect, or effect the other way; inactive means flat fitted curve, though single readings scatter. Where the call is inconclusive, the potency comes from a doubtful curve fit.
# Test: qHTS screen for small molecules that inhibit ELG1-dependent DNA repair in human embryonic kidney (HEK293T) cells expressing luciferase-tagged ELG1; further: nearly all actives have a fitted effect of over 55% in size
# Details: HEK293T ELG1-luciferase reporter, luminescence, 16 h, DNA damage induced by 5-fluorouridine; series mostly up to 46.1 µM
# Method in brief: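 Luminescence from the luciferase reporter, measured 30 min after ONE-Glo reagent at room temperature, was the read-out. Beforehand, 2,000 cells per well were exposed for 16 hr at 37 °C to 5-fluorouridine together with compound or vehicle.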
# Potency means the concentration at half of the fitted maximal effect.
row,Compound,Potency
1,CN(C)S(=O)(=O)N1CCN(C(=O)c2cccc(Br)c2)CC1,inactive
2,COc1ccccc1-c1nnc(SCC(=O)NCc2c(C)c(Cl)cc(C(C)C)c2O)o1,"inconclusive: 11.2 µM [inhibitor, partial curve, poor fit]"
3,O=C1COc2ccc(-c3csc(=Nc4ccc(OC(F)F)cc4)n3CC3CCCO3)cc2N1 (stereo unspecified),"inconclusive: 25.9 µM [inhibitor, single point]"
4,COc1ccc(CCNC(=O)CSc2nc3scc(-c4ccccc4)c3c(=O)[nH]2)cc1,"inconclusive: 29.1 µM [inhibitor, single point]"
5,O=S(=O)(c1ccc2nc(Nc3ccccc3)ccc2c1)N1CCCCC1,inactive
6,Cc1cccn2c(N)c(-c3ccccc3)nc12,"inconclusive: 16.4 µM [activator, partial curve]"
7,COc1ccccc1C(=O)NCCC(=O)N(C)CC(=O)Nc1ccc(N2CCOCC2)cc1,inactive
8,O=[N+]([O-])c1ccc(N2CCC(=NOCc3ccc(Cl)cc3)CC2)cc1,inactive
9,COc1ccc(OC)c(Nc2nc(N(C)c3ccccc3)nc(N)c2[N+](=O)[O-])c1,"inconclusive: 29.1 µM [inhibitor, single point]"
10,CCOc1ccc(/C=N/NC(=O)Cc2cccs2)cc1,"inconclusive: 16.4 µM [activator, partial curve, poor fit]"
11,CCOC(=O)C1=C(CN2CCN(c3ccc(F)cc3)CC2)NC(=O)NC1c1cccs1 (stereo unspecified),"inconclusive: 29.1 µM [inhibitor, single point]"
12,C=CCN1C(=O)/C(=C\c2ccc(Oc3nc(N4CCOCC4)nc(N4CCOCC4)n3)c(OC)c2)SC1=S,"inconclusive: 5.17 µM [inhibitor, partial curve, poor fit]"
13,O=C(Oc1ccc(N2C(=O)CCC2=O)cc1)c1ccccc1Cl,inactive
14,Cn1c(=O)c2c(nc(CN3CCN(Cc4ccccc4)CC3)n2CCN2CCOCC2)n(C)c1=O,inactive
15,CCN(CC(=O)NCc1cccs1)C(=O)/C=C/c1cccc(OC)c1OC,inactive
16,Cc1cccc(C(=O)N/N=C2\CS(=O)(=O)N(C)c3ccsc32)c1,"inconclusive: 18.3 µM [inhibitor, partial curve]"
17,COc1cccc(C(c2sc3ncnn3c2O)N2CC(C)OC(C)C2)c1 (stereo unspecified),"inconclusive: 29.1 µM [inhibitor, single point]"
18,Cc1cc(C)c(C(=O)COC(=O)Cn2c(C)csc2=O)cc1C,inactive
19,CCNNC(=O)C(O)(Cc1ccccc1)Cc1ccccc1,inactive
20,COc1ccc(CN2CCn3ncc(C(=O)Nc4ccccc4)c3C2=O)cc1,"inconclusive: 18.4 µM [activator, partial curve]"
21,CCOc1ccc(N/N=C(/C#N)C(N)=O)cc1,"inconclusive: 20.6 µM [activator, partial curve]"
22,CSc1nc(C(=O)N2CCCC(N3CCN(c4ccccc4C)CC3)C2)cs1 (stereo unspecified),"inconclusive: 23.1 µM [inhibitor, single point]"
23,O=C(NNc1nc(-c2ccc(Br)cc2)cs1)c1ccco1,"inconclusive: 23.1 µM [activator, single point]"

row,Compound,Potency
1,O=C(CC1C(=O)NC2CCCCC2N1C(=O)c1ccc([N+](=O)[O-])cc1)Nc1ccccc1 (stereo unspecified),inactive
2,CCOc1cc(C2c3c(n[nH]c3C)C(=O)N2c2ccc(C)cc2)ccc1O (stereo unspecified),inactive
3,NC(=O)c1c(NC(=O)C(=O)N2CCOCC2)sc2c1CCC2,inactive
4,Cn1nc(CC(=O)NCc2ccc(F)cc2)c2ccccc2c1=O,"inconclusive: 25.9 µM [inhibitor, partial curve, poor fit]"
5,CCN1CCN(Cc2ccc3c(c2)Cc2ccccc2-3)CC1,inactive
6,O=C(C[C@@H]1C/C=C\C[C@H](NC(=O)OCC2c3ccccc3-c3ccccc32)C(=O)OC[C@H]2CCCN2C1=O)N[C@@H](CO)Cc1ccccc1,active: 14.6 µM
7,O=C(NCc1ccccc1)C(c1ccc(F)cc1)N(Cc1cccs1)C(=O)c1cnccn1 (stereo unspecified),active: 13 µM
8,Cc1ccc(C(=O)NCC(c2ccco2)N2CCCCC2)s1 (stereo unspecified),inactive
9,CC(=O)NC(Cc1ccccc1C)C(=O)NC1CCN(c2ncccc2[N+](=O)[O-])CC1 (stereo unspecified),inactive
10,CC/C(C)=N/Nc1nc(-c2cc3cccc(OC)c3oc2=O)cs1,"inconclusive: 2.91 µM [activator, partial curve]"
11,Cc1cc(C)cc(NC(=S)NCc2cccnc2)c1,inactive
12,COc1ccccc1CN1C[C@@H]2C[C@@H](c3ccc(C)cc3)N3CCC[C@@]23C1=O,inactive
13,COc1cc(C(=O)Nc2ccc(N3CCN(C(=O)c4ccc(C)cc4)CC3)cc2)cc(OC)c1OC,inactive
14,Cc1csc(NC(=O)c2cc(=O)[nH]c3ccc(S(=O)(=O)N4CCOCC4)cc23)n1,"inconclusive: 29.1 µM [inhibitor, single point]"
15,O=C(N/C(=C/c1cccc([N+](=O)[O-])c1)C(=O)N1CCOCC1)c1ccc(Br)cc1,"inconclusive: 29.1 µM [inhibitor, single point]"
16,COc1cc(C=O)ccc1OCCSc1ccc(Cl)cc1,"inconclusive: 29.1 µM [activator, single point]"
17,N#Cc1ccc(NC(=O)COC(=O)CCc2nc3ccccc3c(=O)[nH]2)cc1,inactive
18,O=C(NCC(=O)N1CCOCC1)c1ccc(Cl)cc1,"inconclusive: 20.6 µM [activator, single point]"
19,CCOc1ccc(/C=C2/SC(=O)NC2=S)cc1,"inconclusive: 18.4 µM [activator, single point]"
20,COC(=O)Cc1ccc2sc(-c3ccccc3)nc2c1,"inconclusive: 1.16 µM [activator, full curve]"
21,O=C(COC(=O)C1CCN(c2ccc(C(F)(F)F)cn2)CC1)Nc1ccc(F)cc1[N+](=O)[O-],inactive
22,CCCNC(=O)OC[C@H]1O[C@H](CCO/N=C/[C@@H](OC)[C@H](C)/C=C/CC(=O)OC)C=C[C@@H]1Oc1ccc(OC)cc1,"inconclusive: 16.4 µM [inhibitor, partial curve, poor fit]"
23,O=C(NCc1ccccc1)c1cccc(COc2cc(Cl)ccc2Cl)c1,"inconclusive: 5.8 µM [activator, full curve]"

# 3 structures out of the list, ordered by length of the SMILES, low to high.
row,Compound,Potency
16,COc1cc(C=O)ccc1OCCSc1ccc(Cl)cc1,"inconclusive: 29.1 µM [activator, single point]"
19,CCNNC(=O)C(O)(Cc1ccccc1)Cc1ccccc1,inactive
23,O=C(NCc1ccccc1)c1cccc(COc2cc(Cl)ccc2Cl)c1,"inconclusive: 5.8 µM [activator, full curve]"
